# Laboratory results: patent US20240343815A1
# Biological target: marmoset monkey IL4Rα-his protein (marmoset monkey)
# Assay: SPR Biacore, mAb captured, marmoset IL4Rα-his analyte
row,binding,Binder
1,binds,"Chimeric C2C1A1A1 (antibody, human IgG4 S228P, kappa, V domains shown) VH: EVQLVESGGGLVQPGGSLKLSCAASGFTFSTYGMSWVRQTPDKRLELVATINSNGGSTSYPDSVKGRFTISRDNAKNTLYLQMSSLKSEDTAMFYCARFFRFRNAMDYWGQGTSVTVSS VL: DIQMTQSPASLSASVGETVTITCRTSENIYSYLAWYQQKQGKSPQFLVYNAKTLAEGVPSRFSGSGSGTQFSLNINSLQSEDFGSYYCQHYYGPPTWTFGGGTKLEIKR"
2,binds,"huC2C1A1A1-V15 (antibody, human IgG4 S228P, kappa, V domains shown) VH: EVQLVESGGGLVQPGGSLRLSCAASGFTFSTYGMSWVRQAPGKGLVWVATINSNGGSTSYPDSVKGRFTISRDNAKNTLYLQMNSLRAEDTAVYYCARFFRFRNAMDYWGQGTLVTVSS VL: DIQMTQSPSSLSASVGDRVTITCRTSENIYSYLAWYQQKPGKAPKFLVYNAKTLAEGVPSRFSGSGSGTDFTLTISSLQPEDFATYYCQHYYGPPTWTFGQGTKVEIKR"
3,binds,"huC2C1A1A1-V14 (antibody, human IgG4 S228P, kappa, V domains shown) VH: EVQLVESGGGLVQPGGSLRLSCAASGFTFSTYGMSWVRQAPGKGLVWVATINSNGGSTSYPDSVKGRFTISRDNAKNTLYLQMNSLRAEDTAVYYCARFFRFRNAMDYWGQGTLVTVSS VL: DIQMTQSPSSLSASVGQRVTITCRTSENIYSYLAWYQQKQGKPPRFLIYNAKTLAEGVPSRFSGSGSGTEFTLTITSLQAEDFGVYYCQHYYGPPTWTFGPGTKLEIKR"

# These are yes or no findings as the source states them, for the method shown. Binding calls can cover weak binding; strength is not graded here.
